# From PMC8854993, “Acetylation at Lysine 86 of Escherichia coli HUβ Modulates the DNA-Binding Capability of the Protein” (Frontiers in Microbiology, 2021)
# Protein sequences, listed by entry. Tags and fused reporters are not part of them. Lines headed by an entry give the natural chain unless they say otherwise; changes in a name come on top.
# UniProt P0ACF4: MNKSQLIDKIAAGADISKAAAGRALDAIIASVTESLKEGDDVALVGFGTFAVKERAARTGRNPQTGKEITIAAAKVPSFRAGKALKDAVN
# Molecular target: HUβ (Escherichia coli BL21(DE3)) (UniProt P0ACF4)
# Assay: EMSA
# Details: homodimer; nick in bottom strand; 30 mM Tris pH 7.5, 100 mM NaCl, 0.02% Tween20, 0.5 mg/ml BSA; 30-bp DNA 1 µM, 18°C 10 min, 10% PAGE in TBE; long DNA 250 ng in 15 µL, 37°C 1 h, 0.5% agarose in TAE; recombinant protein; residues 1-90; protein details: C-terminal 6xHis
sequence,measurement,value
CCAACTTCCCTAACCCAGCTGCGATCCGTA / TACGGATCGCAGC / TGGGTTAGGGAAGTTGG [30-bp duplex with nick],binding result,binds

# Construct, isoform or probe ends are uncertain for at least one entry. At least one verdict was read from the data and is not stated in words by the source.
